Results reported in US20190388377A1, “COMPOSITIONS AND METHODS FOR THE TREATMENT OF LIVER DISEASES AND DISORDERS” (AXCELLA HEALTH INC., priority 2018, published 2019).
The name of at least one read-out is uncertain.

Test system: CCL18
Assay: CCL18 secretion by ELISA, IL-4-treated primary human M2 macrophages, Example 5
Type: cell-based
Conditions: IL-4 1 ng/ml
Procedure: On day 0, primary human PBMC derived macrophages were seeded in Dulbecco's Modified Eagle Medium (DMEM) (Gibco) supplemented with penicillin-streptomycin (Hyclone) and 10% heat inactivated fetal bovine serum (HI-FBS) (Atlanta Bio) into 96-well microplates (ThermoFisher) and incubated overnight at 37° C., 5% CO2. On day 1, cells were washed once with DPBS and then treated with: • a. Amino acid free DMEM (US Biologicals) containing a defined custom amino acid concentration based on the mean physiological concentrations in blood based on values published in the Human Metabolome Database (HMDB), with 6 mM glucose, 1 mM sodium pyruvate, 10 mM HEPES, penicillin-streptomycin; or • b. The same medium described above with one amino acid or amino acid combination at various concentrations
On day 2, cells were treated with the same mediums described above supplemented with recombinant human interleukin-4 (1 ng/ml of IL-4; Peprotech). Control wells were treated with tofacitinib (Tocris) and IL-4, PBS with IL-4, or phosphate buffered saline (PBS) alone.
On day 3, the supernatant was collected and immediately frozen in −80° C. freezer. Cells were washed once with DPBS and viability was assessed using the WST-8 Cell Proliferation Cytotoxicity Assay (Dojindo) according to manufacturer-supplied protocol. Following the assay, cells were washed twice with PBS and fixed with 4% paraformaldehyde. Protein levels in supernatant samples were analyzed by ELISA for CCL18 using commercially available kits (R&D Systems) according to manufacturer-supplied protocols.

CC[C@H](C)[C@H](N)C(=O)O [I, L-isoleucine]
CCL18 Median Fold Change from Vehicle (log2) (20X): 0.125 log2

CC(C)C[C@H](N)C(=O)O [L, L-leucine]
CCL18 Median Fold Change from Vehicle (log2) (20X): 0.749 log2

NC(=O)CC[C@H](N)C(=O)O [Q, L-glutamine]
CCL18 Median Fold Change from Vehicle (log2) (20X): 0.979 log2

N[C@@H](CO)C(=O)O [S, L-serine]
CCL18 Median Fold Change from Vehicle (log2) (25X): 0.181 log2

CC(C)[C@H](N)C(=O)O [V, L-Valine]
CCL18 Median Fold Change from Vehicle (log2) (20X): 0.358 log2
